Whole data set: some 1,100 compounds, median “Wnt reporter firefly/Renilla luciferase ratio relative to plate median” near 1.1, cut for the highest 2% near 1.6. The entries are a selection whose mix differs from that of the whole data set.
Tested on: HEK293T (UBE3A T485A transfected, BAR Wnt reporter)
Test: Wnt reporter firefly/Renilla luciferase ratio relative to plate median (fold (linear ratio)); higher = more Wnt/beta-catenin reporter activation
Conditions: 24 h
Procedure, shortened: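 HEK293T cells carrying a transfected BAR firefly luciferase Wnt reporter, TK-Renilla and an expression plasmid were exposed to chemicals at 0.01–100 uM for 24 h, with dosing four hours after transfection. Readout used Dual-Glo luciferase. The firefly/Renilla ratio defined Wnt activity and raw Renilla defined cell health, each median-centred per plate. Figures are means of four biological replicates.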

SMILES | Wnt reporter firefly/Renilla luciferase ratio (concentration: 0.1 uM) | Wnt reporter firefly/Renilla luciferase ratio (concentration: 1 uM) | Wnt reporter firefly/Renilla luciferase ratio (concentration: 10 uM) | Wnt reporter firefly/Renilla luciferase ratio (concentration: 100 uM) | Wnt reporter firefly/Renilla luciferase ratio (concentration: 0.01 uM)
CC(C)c1ccc(C(=O)N=C(N)N)cc1S(C)(=O)=O.CS(=O)(=O)O [Cariporide mesylate] | 1.05 | 1.35 | 1.03 | 0.932 | –
O=C(CCCCCCCCc1cccnc1)N1CCC(C=C(c2ccccc2)c2ccccc2)CC1 | 1.18 | 0.837 | 1.23 | 0.852 | –
CCCCCCc1ccc(O)cc1O [4-Hexylresorcinol] | 0.958 | 1 | 0.876 | – | –
CC=Cc1ccc(O)c(OC)c1 [Isoeugenol] | 0.93 | 1.02 | 1.04 | 0.677 | –
CS(=O)(=O)OCCCCOS(C)(=O)=O [Busulfan] | 0.922 | 1.13 | 1.22 | 1.11 | –
CCC(C)(C)C(=O)O[C@H]1C[C@@H](C)C=C2C=C[C@H](C)[C@H](CC[C@@H]3C[C@@H](O)CC(=O)O3)[C@H]21 [Simvastatin] | 1.08 | 0.9 | 0.905 | 0.689 | –
O=c1ccc2ccccc2o1 [Coumarin] | 0.953 | 1.2 | 1.07 | 1.05 | –
COCCOC[C@H](CC1(C(=O)N[C@H]2CC[C@@H](C(=O)O)CC2)CCCC1)C(=O)Oc1ccc2c(c1)CCC2 [Candoxatril] | 1.15 | 1.05 | 1 | 0.894 | –
CC/C(=C(\c1ccccc1)c1ccc(OCCN(C)C)cc1)c1ccccc1 [Tamoxifen] | 1.04 | 0.926 | 1.02 | 0.288 | –
CSC(=O)c1cccc2nnsc12 [Acibenzolar-S-methyl] | 0.92 | 0.985 | 0.879 | 1.58 | 0.853
CCCCC(CC)C(=O)OCCOCCOCCOC(=O)C(CC)CCCC (stereo not given) [Triethylene glycol bis(2-ethylhexanoate)] | 0.896 | 0.908 | 0.965 | 1.43 | –
Cc1cc(NC(=O)C(=O)O)cc(C)c1Oc1ccc(O)c2c1CCC2 | 0.867 | 0.945 | 1 | 0.848 | –
CNCc1ccc(NC(=O)c2c[nH]c3c2C(=O)CCC3)cc1 | 1.24 | 1.06 | 1.69 | 0.318 | –
OCCC(F)(F)C(F)(F)C(F)(F)C(F)(F)C(F)(F)C(F)(F)C(F)(F)C(F)(F)F [1,1,2,2-Tetrahydroperfluoro-1-decanol] | 1.3 | 0.898 | 1.2 | 1.28 | –
Nc1ccc2c(c1)C(=O)c1ccccc1C2=O [2-Aminoanthraquinone] | 1.06 | 1.2 | 1.28 | 1.58 | –
O=C(O)c1cccc(C(=O)O)c1 [1,3-Benzenedicarboxylic acid] | 1.21 | 1.28 | 1.24 | 1.02 | –
O=[Si]=O [Silica] | 1.49 | 1.17 | 1.18 | 1.52 | –
CC(C)CC(C)O (stereo not given) [4-Methyl-2-pentanol] | 0.96 | 1.03 | 1.3 | 1.28 | –
NC1CCCCC1 [Cyclohexylamine] | 0.893 | 0.987 | 0.752 | 1.05 | –
O=C(O)c1ccccc1 [Benzoic acid] | 1.19 | 0.956 | 0.996 | 1.03 | –

Quoted from the listing:
Wnt reporter firefly/Renilla luciferase ratio (concentration: 0.1 uM) with Cc1cc(NC(=O)C(=O)O)cc(C)c1Oc1ccc(O)c2c1CCC2 is entered as 0.867
Wnt reporter firefly/Renilla luciferase ratio (concentration: 100 uM) with CS(=O)(=O)OCCCCOS(C)(=O)=O [Busulfan] is entered as 1.11
Wnt reporter firefly/Renilla luciferase ratio (concentration: 10 uM) with CCC(C)(C)C(=O)O[C@H]1C[C@@H](C)C=C2C=C[C@H](C)[C@H](CC[C@@H]3C[C@@H](O)CC(=O)O3)[C@H]21 [Simvastatin] is entered as 0.905

(more compounds)

SMILES | Wnt reporter firefly/Renilla luciferase ratio (concentration: 0.1 uM) | Wnt reporter firefly/Renilla luciferase ratio (concentration: 1 uM) | Wnt reporter firefly/Renilla luciferase ratio (concentration: 10 uM) | Wnt reporter firefly/Renilla luciferase ratio (concentration: 100 uM) | Wnt reporter firefly/Renilla luciferase ratio (concentration: 0.01 uM)
COc1ccc2cc(S(=O)(=O)NC(CC(=O)NC(Cc3ccc(CN4C(C)CCCC4C)cc3)C(=O)N(C)C(C)C)c3ccc4c(c3)OCO4)ccc2c1.Cl (stereo not given) | 0.876 | 1.09 | 0.743 | – | –
CC1(C)NC(=O)NC1=O [5,5-Dimethylhydantoin] | 0.947 | 1.13 | 1.16 | 0.985 | –
CCCc1cc(=O)[nH]c(=S)[nH]1 [6-Propyl-2-thiouracil] | 0.769 | 0.693 | 0.757 | 0.709 | –
COc1cc(C(C)C)c2c(c1)S(=O)(=O)N(COc1cc(=O)n3cccc(OCCN4CCCCC4)c3n1)C2=O | 0.875 | 0.787 | 0.903 | 0.835 | –
COCCO [2-Methoxyethanol] | 0.833 | 0.983 | 1.13 | 1.58 | 0.891
NCCOCCOCCN [2,2'-[Ethane-1,2-diylbis(oxy)]diethanamine] | 1.6 | 0.964 | 1.12 | 1.13 | –
OCCC(F)(F)C(F)(F)C(F)(F)C(F)(F)C(F)(F)C(F)(F)F [3,3,4,4,5,5,6,6,7,7,8,8,8-Tridecafluorooctan-1-ol] | 1.36 | 0.849 | 1.08 | 0.998 | –
Cc1oc2c(NC(=O)c3c(Cl)cccc3Cl)cccc2c1C(C)(C)O | 1.01 | 1.14 | 0.7 | – | –
CC(C)(C)c1cc(O)c(C(C)(C)C)cc1O [2,5-Di-tert-butylbenzene-1,4-diol] | 1.14 | 0.988 | 1.13 | – | –
COc1ccc(/C=C/S(=O)(=O)[N-]C(=O)c2ccc(C)cc2Cl)cc1.[Na+] | 1.08 | 1.09 | 1.13 | 0.437 | –
O=C([O-])c1ccccc1.[Na+] [Sodium benzoate] | 1 | 1.12 | 0.968 | 1.45 | –
CCCCCCCCCC [Decane] | 1.01 | 0.915 | 1.09 | 1.08 | –
C1N2CN3CN1CN(C2)C3 [Methenamine] | 1.17 | 1.16 | 1.23 | 1.71 | –
COc1cc(/C=C/C(=O)CC(=O)/C=C/c2ccc(O)c(OC)c2)ccc1O [Curcumin] | 0.875 | 1.1 | 0.69 | – | 1.1
OC[C@@H](O)[C@@H](O)[C@H](O)[C@H](O)CO [D-Mannitol] | 1.05 | 1.23 | 1.07 | 1.39 | –
O=C([O-])c1[nH]n(-c2ccc(S(=O)(=O)[O-])cc2)c(=O)c1/N=N/c1ccc(S(=O)(=O)[O-])cc1.[Na+].[Na+].[Na+] [FD&C Yellow 5] | – | – | – | 1.86 | –
O=C1O[C@H]([C@@H](O)CO)C([O-])=C1O.[Na+] [Sodium L-ascorbate] | 1.1 | 1.07 | 1.35 | 1.21 | –
Nc1nc(N)c2nc(CNc3ccc(C(=O)N[C@@H](CCC(=O)O)C(=O)O)cc3)cnc2n1 [4-Aminofolic acid] | 1.15 | 0.975 | 0.259 | 0.385 | –
COC(=O)CCC(=O)OC [Dimethyl succinate] | 1.02 | 1.01 | 1.13 | 1.29 | –
Cc1ccc2oc(CN(Cc3ccccc3)C(=O)Nc3c(F)cc(F)cc3F)c(-c3ccc(Cl)cc3)c2c1 | 1.24 | 1.21 | 1.07 | 0.909 | –
